According to patent publication US20260184794A1, “ANTIBODIES AGAINST INTEGRIN ALPHA 11 BETA 1 AND USES THEREOF” (Momenta Pharmaceuticals, Inc., priority 2022, published 2026):
These are yes or no findings as the source states them, for the method shown. Some entries that bind do so weakly or less than the wild type.

Sequences of proteins named here, by UniProt entry; tags and fusion partners are left off. A change or cut given only in a name is not applied to a line headed by its entry.
UniProt Q9UKX5: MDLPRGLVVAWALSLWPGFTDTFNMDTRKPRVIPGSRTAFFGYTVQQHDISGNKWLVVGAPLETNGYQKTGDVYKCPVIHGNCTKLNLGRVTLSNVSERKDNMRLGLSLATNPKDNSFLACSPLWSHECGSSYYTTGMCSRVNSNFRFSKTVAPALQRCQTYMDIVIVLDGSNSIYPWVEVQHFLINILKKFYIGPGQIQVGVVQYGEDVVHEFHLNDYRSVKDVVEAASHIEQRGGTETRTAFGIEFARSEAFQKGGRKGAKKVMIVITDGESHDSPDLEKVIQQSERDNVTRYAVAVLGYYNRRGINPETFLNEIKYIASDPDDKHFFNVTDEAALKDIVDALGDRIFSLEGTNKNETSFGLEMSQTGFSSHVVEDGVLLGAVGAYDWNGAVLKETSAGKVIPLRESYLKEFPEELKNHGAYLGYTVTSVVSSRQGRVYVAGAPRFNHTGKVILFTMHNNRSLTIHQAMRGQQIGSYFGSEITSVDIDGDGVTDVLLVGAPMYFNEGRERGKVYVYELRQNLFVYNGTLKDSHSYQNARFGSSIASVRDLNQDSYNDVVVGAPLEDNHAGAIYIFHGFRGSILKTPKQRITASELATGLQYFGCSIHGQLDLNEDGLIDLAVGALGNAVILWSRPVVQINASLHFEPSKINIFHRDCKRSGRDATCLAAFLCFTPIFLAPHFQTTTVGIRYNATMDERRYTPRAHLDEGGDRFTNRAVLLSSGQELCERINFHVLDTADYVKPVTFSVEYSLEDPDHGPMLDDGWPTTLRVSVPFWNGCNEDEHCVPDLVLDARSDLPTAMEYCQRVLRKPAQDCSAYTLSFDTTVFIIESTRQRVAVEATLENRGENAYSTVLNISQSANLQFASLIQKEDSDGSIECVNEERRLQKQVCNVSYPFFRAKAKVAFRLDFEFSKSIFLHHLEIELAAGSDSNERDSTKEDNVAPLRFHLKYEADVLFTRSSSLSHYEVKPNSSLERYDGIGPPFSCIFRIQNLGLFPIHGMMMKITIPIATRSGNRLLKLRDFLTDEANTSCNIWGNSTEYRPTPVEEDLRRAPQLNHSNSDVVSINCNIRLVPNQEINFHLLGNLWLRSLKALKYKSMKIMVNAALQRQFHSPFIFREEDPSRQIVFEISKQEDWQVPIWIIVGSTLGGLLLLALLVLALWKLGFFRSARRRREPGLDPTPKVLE
UniProt P05556: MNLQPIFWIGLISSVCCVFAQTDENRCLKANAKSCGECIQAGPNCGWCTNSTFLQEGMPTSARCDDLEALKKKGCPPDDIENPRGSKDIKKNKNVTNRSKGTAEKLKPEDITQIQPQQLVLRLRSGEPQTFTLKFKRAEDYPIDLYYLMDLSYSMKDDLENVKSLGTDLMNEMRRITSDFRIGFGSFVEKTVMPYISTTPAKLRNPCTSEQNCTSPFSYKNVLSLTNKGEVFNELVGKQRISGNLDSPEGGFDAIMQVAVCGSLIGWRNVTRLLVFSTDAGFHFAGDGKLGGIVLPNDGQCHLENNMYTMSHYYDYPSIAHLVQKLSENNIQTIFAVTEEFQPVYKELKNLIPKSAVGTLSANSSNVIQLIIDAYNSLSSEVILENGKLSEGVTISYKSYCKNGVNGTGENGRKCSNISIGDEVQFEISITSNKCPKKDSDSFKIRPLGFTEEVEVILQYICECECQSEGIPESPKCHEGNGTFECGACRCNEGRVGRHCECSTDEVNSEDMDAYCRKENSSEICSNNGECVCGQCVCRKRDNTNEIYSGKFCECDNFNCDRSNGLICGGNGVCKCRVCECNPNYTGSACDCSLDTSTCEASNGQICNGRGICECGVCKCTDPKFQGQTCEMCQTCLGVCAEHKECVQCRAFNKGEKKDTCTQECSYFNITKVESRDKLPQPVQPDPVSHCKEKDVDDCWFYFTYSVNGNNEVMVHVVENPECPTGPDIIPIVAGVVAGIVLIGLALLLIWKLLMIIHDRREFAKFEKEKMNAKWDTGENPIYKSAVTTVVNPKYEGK

Target: α11β1 on human pulmonary myofibroblasts (human) (UniProt Q9UKX5+P05556)
Test: flow cytometry on human pulmonary myofibroblasts (title: Myofibroblast Binding); MFI against Log [µg/ml]

binding	Binder
binds	1994-01-C7 variant 60 (antibody, V domains shown) VH: QVQLVQSGAEVKKPGASVKVSCKASGYTFTSYGISWVRQAPGQGLEWMGWISAYNSNTNYAQKLQGRVTMTTDTSTSTAYMELRSLRSDDTAAYYCARVTGITGTTIGPWGQGTMVTVSS VL: DIQMTQSPSSLSASVGDRVTITCRASQSISSYLNWYQQKPGKAPKLLIYDASSLESGVPSRFSGSGSGTEFTLTISSLQPDDFAVYYCQQYNNWPQTFGQGTKVEIK
binds	1994-01-C7 variant 54 (antibody, V domains shown) VH: QVQLVQSGAEVKKPGASVKVSCKASGYTFTSYGISWVRQAPGQGLEWMGWISAYNANTNYAQKLQGRVTMTTDTSTSTAYMELRSLRSDDTAAYYCARVTGITGTTIGPWGQGTMVTVSS VL: DIQMTQSPSSLSASVGDRVTITCRASQSISSYLNWYQQKPGKAPKLLIYDASSLESGVPSRFSGSGSGTEFTLTISSLQPDDFAVYYCQQYNNWPQTFGQGTKVEIK
binds	1994-01-C7 variant 58 (antibody, V domains shown) VH: QVQLVQSGAEVKKPGASVKVSCKASGYTFTSYGISWVRQAPGQGLEWMGWISAYNANVNYAQKLQGRVTMTTDTSTSTAYMELRSLRSDDTAAYYCARVTGITGTTIGPWGQGTMVTVSS VL: DIQMTQSPSSLSASVGDRVTITCRASQSISSYLNWYQQKPGKAPKLLIYDASSLESGVPSRFSGSGSGTEFTLTISSLQPDDFAVYYCQQYNNWPQTFGQGTKVEIK
